Source: article PMC11096176
No constants are given. Whether binding was seen depends on the method and setting. In cells and extracts the contact can be indirect. Some results given as binding are weak or reduced against the parent protein; the word gives no strength. For some of these results: Where a sequence is shown, tags or fusion partners need not be part of it. Each block holds one binder with its values, some of them ahead of it.

How the values were obtained:
Flag-tagged TBX3 = target: T1, Flag-tagged TBX3 (UniProt O15119); assay: co-IP; over-expressed HA-USP15 and Flag-TBX3 in HEK293T cell extracts, both directions; lysis buffer 50 mM Tris-HCl pH 7.4, 150 mM NaCl, 5 mM EDTA, 0.5% NP-40
T1 sequence: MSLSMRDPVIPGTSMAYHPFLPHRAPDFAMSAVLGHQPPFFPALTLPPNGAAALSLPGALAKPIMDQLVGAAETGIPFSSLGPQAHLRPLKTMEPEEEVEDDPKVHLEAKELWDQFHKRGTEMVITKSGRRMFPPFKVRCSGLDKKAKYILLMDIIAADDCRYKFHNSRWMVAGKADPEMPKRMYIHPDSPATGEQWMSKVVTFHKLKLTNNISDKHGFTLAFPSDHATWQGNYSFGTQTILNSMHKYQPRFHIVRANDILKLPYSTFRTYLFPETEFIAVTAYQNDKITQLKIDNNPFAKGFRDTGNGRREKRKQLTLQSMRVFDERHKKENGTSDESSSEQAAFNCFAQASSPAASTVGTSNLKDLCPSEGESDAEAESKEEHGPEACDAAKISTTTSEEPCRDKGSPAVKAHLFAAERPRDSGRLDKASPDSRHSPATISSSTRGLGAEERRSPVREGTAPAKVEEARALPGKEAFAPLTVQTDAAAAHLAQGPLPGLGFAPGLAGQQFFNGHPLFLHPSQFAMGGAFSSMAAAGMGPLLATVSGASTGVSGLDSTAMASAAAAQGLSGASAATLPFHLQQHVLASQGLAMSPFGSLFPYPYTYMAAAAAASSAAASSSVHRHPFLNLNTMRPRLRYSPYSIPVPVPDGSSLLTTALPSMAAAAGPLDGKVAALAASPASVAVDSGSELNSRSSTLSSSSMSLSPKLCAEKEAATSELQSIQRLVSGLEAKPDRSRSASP

[1] = target: T2, TBX3 (endogenous) (human (endogenous in K1 and 8505 C)) (UniProt O15119); assay: co-IP; endogenous TBX3 and USP15 in K1 and 8505 C cells; lysis buffer 50 mM Tris-HCl pH 7.4, 150 mM NaCl, 5 mM EDTA, 0.5% NP-40
T2 sequence: T1 sequence

[2] = target: T2, TBX3 (endogenous) (human (endogenous in K1 and 8505 C)); assay: proximity ligation; Duolink PLA on fixed, permeabilised K1 cells, endogenous USP15 and TBX3
HA-tagged USP15 = target: T3, HA-tagged USP15 (UniProt Q9Y4E8); assay: co-IP; over-expressed HA-USP15 and Flag-TBX3 in HEK293T cell extracts, both directions; lysis buffer 50 mM Tris-HCl pH 7.4, 150 mM NaCl, 5 mM EDTA, 0.5% NP-40
T3 sequence: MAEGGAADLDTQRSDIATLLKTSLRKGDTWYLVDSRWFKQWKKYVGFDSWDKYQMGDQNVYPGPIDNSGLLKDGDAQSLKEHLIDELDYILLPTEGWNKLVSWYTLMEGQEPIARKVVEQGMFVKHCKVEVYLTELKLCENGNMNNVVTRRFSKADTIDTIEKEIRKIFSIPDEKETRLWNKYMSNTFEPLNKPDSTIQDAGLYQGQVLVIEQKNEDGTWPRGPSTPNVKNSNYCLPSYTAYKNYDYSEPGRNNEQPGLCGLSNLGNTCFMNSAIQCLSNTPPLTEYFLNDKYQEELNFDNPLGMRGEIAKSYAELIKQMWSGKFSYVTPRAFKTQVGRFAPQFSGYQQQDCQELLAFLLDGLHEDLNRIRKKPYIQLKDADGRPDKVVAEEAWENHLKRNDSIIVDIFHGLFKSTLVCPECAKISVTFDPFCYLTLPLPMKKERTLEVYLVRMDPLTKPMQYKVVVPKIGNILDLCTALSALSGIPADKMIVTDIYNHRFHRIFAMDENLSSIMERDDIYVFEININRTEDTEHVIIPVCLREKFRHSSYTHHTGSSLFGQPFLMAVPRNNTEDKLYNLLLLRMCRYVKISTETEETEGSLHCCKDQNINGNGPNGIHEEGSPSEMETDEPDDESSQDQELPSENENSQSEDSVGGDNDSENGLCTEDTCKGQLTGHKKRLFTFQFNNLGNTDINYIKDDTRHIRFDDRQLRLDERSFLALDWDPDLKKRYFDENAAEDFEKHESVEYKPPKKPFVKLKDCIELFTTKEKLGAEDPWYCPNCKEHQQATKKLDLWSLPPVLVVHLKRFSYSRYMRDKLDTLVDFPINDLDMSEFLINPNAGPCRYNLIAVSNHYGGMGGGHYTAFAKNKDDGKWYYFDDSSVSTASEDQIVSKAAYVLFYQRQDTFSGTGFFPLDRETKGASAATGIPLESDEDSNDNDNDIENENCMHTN

binding (Flag-tagged TBX3): binds
B1: HA-tagged USP15 (enzyme, UniProt Q9Y4E8-2 1-952)
chain: T3 sequence

binding [1]: binds | binding [2]: binds
B2: USP15 (endogenous) (enzyme, UniProt Q9Y4E8 1-981)
chain: MAEGGAADLDTQRSDIATLLKTSLRKGDTWYLVDSRWFKQWKKYVGFDSWDKYQMGDQNVYPGPIDNSGLLKDGDAQSLKEHLIDELDYILLPTEGWNKLVSWYTLMEGQEPIARKVVEQGMFVKHCKVEVYLTELKLCENGNMNNVVTRRFSKADTIDTIEKEIRKIFSIPDEKETRLWNKYMSNTFEPLNKPDSTIQDAGLYQGQVLVIEQKNEDGTWPRGPSTPKSPGASNFSTLPKISPSSLSNNYNNMNNRNVKNSNYCLPSYTAYKNYDYSEPGRNNEQPGLCGLSNLGNTCFMNSAIQCLSNTPPLTEYFLNDKYQEELNFDNPLGMRGEIAKSYAELIKQMWSGKFSYVTPRAFKTQVGRFAPQFSGYQQQDCQELLAFLLDGLHEDLNRIRKKPYIQLKDADGRPDKVVAEEAWENHLKRNDSIIVDIFHGLFKSTLVCPECAKISVTFDPFCYLTLPLPMKKERTLEVYLVRMDPLTKPMQYKVVVPKIGNILDLCTALSALSGIPADKMIVTDIYNHRFHRIFAMDENLSSIMERDDIYVFEININRTEDTEHVIIPVCLREKFRHSSYTHHTGSSLFGQPFLMAVPRNNTEDKLYNLLLLRMCRYVKISTETEETEGSLHCCKDQNINGNGPNGIHEEGSPSEMETDEPDDESSQDQELPSENENSQSEDSVGGDNDSENGLCTEDTCKGQLTGHKKRLFTFQFNNLGNTDINYIKDDTRHIRFDDRQLRLDERSFLALDWDPDLKKRYFDENAAEDFEKHESVEYKPPKKPFVKLKDCIELFTTKEKLGAEDPWYCPNCKEHQQATKKLDLWSLPPVLVVHLKRFSYSRYMRDKLDTLVDFPINDLDMSEFLINPNAGPCRYNLIAVSNHYGGMGGGHYTAFAKNKDDGKWYYFDDSSVSTASEDQIVSKAAYVLFYQRQDTFSGTGFFPLDRETKGASAATGIPLESDEDSNDNDNDIENENCMHTN

binding (HA-tagged USP15): binds
B3: Flag-tagged TBX3 (protein, UniProt O15119 1-743)
chain: T1 sequence
